This note sets out measurements from PMC9954420.

Chains of the proteins cited; added tags and fusions are not shown. Lines headed by an entry give the natural chain unless they say otherwise; changes in a name come on top.
UniProt Q8C6B2: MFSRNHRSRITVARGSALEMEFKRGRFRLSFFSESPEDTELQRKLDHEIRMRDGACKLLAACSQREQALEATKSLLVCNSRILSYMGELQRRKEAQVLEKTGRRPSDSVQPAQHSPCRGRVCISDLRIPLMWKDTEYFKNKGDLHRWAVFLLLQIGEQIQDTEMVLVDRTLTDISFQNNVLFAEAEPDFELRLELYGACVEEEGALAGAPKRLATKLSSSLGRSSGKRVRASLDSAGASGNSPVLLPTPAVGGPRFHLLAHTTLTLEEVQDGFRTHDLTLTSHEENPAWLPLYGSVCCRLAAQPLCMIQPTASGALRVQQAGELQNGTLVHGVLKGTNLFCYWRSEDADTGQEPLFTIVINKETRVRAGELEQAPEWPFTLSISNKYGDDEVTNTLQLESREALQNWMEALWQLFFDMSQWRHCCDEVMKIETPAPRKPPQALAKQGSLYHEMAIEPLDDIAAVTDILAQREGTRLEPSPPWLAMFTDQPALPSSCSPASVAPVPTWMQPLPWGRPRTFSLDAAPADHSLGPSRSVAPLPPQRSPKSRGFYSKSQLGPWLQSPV
UniProt P61589: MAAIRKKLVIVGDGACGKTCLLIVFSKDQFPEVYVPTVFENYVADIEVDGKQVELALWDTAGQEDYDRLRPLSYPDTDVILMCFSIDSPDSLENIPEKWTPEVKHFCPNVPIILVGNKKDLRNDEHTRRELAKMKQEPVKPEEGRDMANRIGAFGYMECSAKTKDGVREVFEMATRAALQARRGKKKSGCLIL

These are yes or no findings as the source states them, for the method shown. In cells and extracts the contact can be indirect. Binding can be weak; no strength is given.

In this assay the target is GST-Rhotekin-Rho-binding domain (UniProt Q8C6B2). The assay can be described thus: pull-down; 0.1 mg GST-tagged probe (or GST as control) immobilized on glutathione agarose, incubated with lysates of 10 million RBL-2H3 cells (unstimulated, antigen-stimulated 0-20 min, GEF-H1 knockdown, or pretreated with taxol, nocodazole or the Syk inhibitor GS-9973); buffer A: 20 mM HEPES pH 7.5, 1% Triton X-100, 10 mM MgCl2, 150 mM NaCl, 5% glycerol; immunoblot; only the target purified. In general terms: A western blot detects proteins with antibodies after separation by electrophoresis.

In the case of “RhoA (active, RhoA-GTP), endogenous in RBL-2H3 cells (from UniProt P61589 1-193)”, the binding entry is given as “binds”.
